Test results: article PMC7862700
The entries are a selection whose mix differs from that of the whole data set. At the low end of the ranking, values are background and their order means little.

target: T1, FLI1 (UniProt Q01543); assay: DAPPL (digital affinity profiling via proximity ligation, sequencing); settings: 10 mM Tris-HCl pH 7.5, 50 mM NaCl, 1 mM DTT, 4% glycerol, room temperature, 30 min; GST-TFs on glutathione beads, 16-mer random dsDNA library, 0.1% …; high values mean tight binding; double strand, one strand shown; scale: fold enrichment (6-mer frequency, TF over GST control)
T1 sequence: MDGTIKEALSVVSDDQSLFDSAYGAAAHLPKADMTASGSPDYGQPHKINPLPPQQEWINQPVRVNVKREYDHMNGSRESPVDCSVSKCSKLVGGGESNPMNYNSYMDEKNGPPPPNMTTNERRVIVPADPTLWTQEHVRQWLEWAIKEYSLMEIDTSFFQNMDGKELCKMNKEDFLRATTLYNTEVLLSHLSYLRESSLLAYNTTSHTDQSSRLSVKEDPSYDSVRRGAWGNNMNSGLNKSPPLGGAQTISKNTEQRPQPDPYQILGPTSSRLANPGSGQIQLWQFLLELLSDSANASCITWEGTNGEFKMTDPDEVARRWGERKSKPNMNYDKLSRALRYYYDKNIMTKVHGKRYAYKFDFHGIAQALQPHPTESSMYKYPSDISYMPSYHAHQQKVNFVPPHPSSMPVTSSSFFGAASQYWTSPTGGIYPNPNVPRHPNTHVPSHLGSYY

| Sequence | binding signal |
| --- | --- |
| CCGCTT | 1.89 |
| ATTTTC | 1.47 |
| TAAACC | 1.27 |
| TACGAC | 1.33 |
| ATTGTA | 1.22 |
| ATCCCG | 1.5 |
| TTTCGT | 1.31 |
| CTGCTT | 1.69 |
| GTACGA | 1 |
| TCTGCG | 1.12 |
| ATTACC | 1.22 |
| CACGTT | 1.28 |
| GCCGAT | 1.14 |
| ACTGAT | 1.22 |
| ACGAAT | 1.12 |
| TCAAGT | 0.993 |
| TCTACA | 1.12 |
| GCGACC | 1.09 |
| CATTCG | 1.25 |
| TTGAGC | 1.22 |

Copied from the list:
GCGACC | binding signal: 1.09
CACGTT | binding signal: 1.28

Later entries.

| Sequence | binding signal |
| --- | --- |
| CTCGCT | 1.81 |
| CCGAAA | 1.25 |
| CCGGAT | 3.23 |
| TCCGTA | 1.57 |
| CACATA | 1.14 |
| TCGATA | 1.17 |
| TGTGCC | 1.17 |
| GTACAC | 1.18 |
| CCTAGC | 1.18 |
| AAGTAT | 1.44 |
| AGATGC | 1.13 |
| CTTTGA | 1.29 |
| CCGTTT | 1.47 |
| AATGAA | 1.11 |
| ATGGGC | 1.28 |
| AAACTA | 1.17 |
| ATACAC | 1.18 |
| ATTGGT | 1.31 |
| CTTTAC | 1.24 |
| TGCCCC | 1.13 |
